Results reported in PMC11651612.
These are yes or no findings as the source states them, for the method shown. Binding seen in cells or lysates may run through a third protein. A yes stands for co-enrichment or nearness to the bait. Other partners may have been found. Blank lines part the entries; values can stand above or below the binder they belong to.

Molecular target: T1, Cdc10-mCherry (C. neoformans) (UniProt J9VMT9)
T1 sequence: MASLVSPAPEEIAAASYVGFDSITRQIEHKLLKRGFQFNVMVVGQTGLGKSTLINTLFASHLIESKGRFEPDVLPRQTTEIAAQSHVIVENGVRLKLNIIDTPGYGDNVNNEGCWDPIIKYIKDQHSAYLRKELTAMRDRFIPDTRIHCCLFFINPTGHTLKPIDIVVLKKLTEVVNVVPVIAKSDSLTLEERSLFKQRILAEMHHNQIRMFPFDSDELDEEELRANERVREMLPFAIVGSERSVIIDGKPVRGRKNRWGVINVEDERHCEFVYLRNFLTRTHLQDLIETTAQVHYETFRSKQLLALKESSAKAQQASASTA
Experiment: affinity purification with mass spectrometry; mCherry-tagged septin captured from C. neoformans lysate on RFP-Trap agarose, 4 h at 4°C, washed with TBS with 2 M urea pH 7.5; GeLC-MS/MS; untagged H99 as negative control; hits logFC >2 and adjusted p <0.001 (text-named hits <0.05); exponential cultures at ~25°C or shifted to 37°C for 2 h; N = 5

binding: binds
B3: Septin ring protein CDC3 (protein, UniProt J9VUF2 1-461)
chain: MADSYYENQTHSPSPQGEQYSNDNSERIASPSGGVVSSEGYLANRDAQPTPAAVAPARKKLSSWVGFSNLPNQVHRRSVRRGFQFVTMVVGESGLGKSTLINTLFETKLYQPKQIPTPGADRGKTVQIESISADIEENGVRLKLTVVDTPGFGDFVNNEESWKPIVDNIEARFDAFLEQENRVNRSKLLDNRVHACLYFIQPTGHSLKAIDIEFMRRLHNKVNLIPIIAKADTMTDDEIIAFKQRILADIAHYGIQIFQPFQYENEDEETIQENEEIISKVPFAVVGSDSIVQSPDGRQVRGRSYPWGVIEVDNEDHCDFVKLRQMLVRTHMEELREHTNDVLYENYRTEKLRAMGVQQDESVFKETNPAAKQAEERALHEAKLAKMEAEMKIVFQQKVQEKEQKLKQSEEELYARHREMKDALEKQKQELEDKRRRIESGRPLTPEKGSIQQKKRFGLGK

binding: binds
B4: Protein transport protein SFT2 (protein, UniProt J9VP98 1-206)
chain: MSDSAQRSFRSQLSSFRWANSVQDDSQPAPPPTTSNPFSRAWNSVSGYIPLRNEGSSQEEEAYFALSRWERFLGFLACCAGGIACFGIAFLFLPILAIKPRKFALAFTLGSCLFMLGFAILHGPWNHFKHILSPERLPFSLCYFGSLGLTLFFAIGIRSTIGTLLASIIQVVALLSYVVAYFPGGMTTLRLGGQMAMRGAGSLLPI

binding: binds
B6: Mannose-6-phosphate isomerase (protein, UniProt J9VQA8 1-177)
chain: MSLVNVTRVVPKSILGASFTSATRRLTTTVPRFGRMPPPAHKMAHFPRITSSLPSEHSEFRTVMWTGESSQLVLMTIPVGGEIGEEIHHVDQHLVFTSGTAKAIVAGEEKEIKAGDLVIVPQGTKHNFVNTGPTPLCLFTVYAPAEHAETTVNRTKEEGDKLEEDGKDEPPEWAVRK

binding: binds
B7: Molybdopterin binding domain-containing protein (protein, UniProt J9VQ43 1-337)
chain: MFIPFSRLLQTVARPFAPLPSRSLPIRIAFGRIYLRTMSTEAPIVPTSPSSVADPLGKGKYIQTAGCIIVGDEVLNGKTKDTNSNFFAQYCFDLGIELKRIEVIADDEDEIIEAARRMTEKYDFVVTSGGIGPTHDDITYASLAKAFNLPLVHHPETLRRMWALTTPERRAELEKATPAQREARERMALFPTQKEEGDVKSEAIFVEADKWVPVVRLAGKLCVFPGIPSLFQQLLLALTPYLPLPPASSKPFRHLIYTGKPESAIAPYLTELQARVKKEGIRIGSYPYLYQGVHISLIGHNIERVKELGREVIQEVDGKVVAEGKLGGDSTSTTSKM

binding: binds
B9: Pantetheine-phosphate adenylyl transferase (protein, UniProt J9VGG8 1-363)
chain: MTSKIDLQDHTILVLPFTPSLLRDPSPLYSPILDVLPRSSKKSFTVFFSTPAGSISSEQSAIQSISGVGSNQEQLYSLLRRTPQESFKALQSFLGHIYTALWTAQWKCGNVLLDVEVHFEGESGKLGDKLLRGKDDEEEYQLIKVEGVQETDLVASLDQIIPSPFTLLSLPYASLSSHQSEPYILLDEGRTPGFPVVALGGTFDRLHAAHKLLLHLGYFLAREKLIVGVMADDLLHTKAHADLVQPLNQRLDGVNAFLGRLGDGSIKLNVVEIHDALGPTRSDPNVQALVVSHETLSGGKYVNSTRKEGGLQELELFVVDVIAENGDMNLKKEMDESRLKKMKMGSTGVRNWIAERGTGEQDR

The remaining lines, values behind:

B1: Carnitine acetyltransferase (protein, UniProt J9VIM7 1-759)
chain: MIIPSSIHRIQSVHTPLRTLRATSLFTVSAPTHPASITARNVSRRMFAASTYRSNQPKTFENQSKLPRLPVPDLEASLEGYLKSLGPLLEEKYDKASLSNEVEKRQLYVKDFASTGGLGRVLQERLKDLDHVSPNNWLNDTLWLALAYHTWRAPLLVNSNWWLCFAEDPLSPPPPSLPSSTKESNATRAQTATIKVPNPSPLTDVPAGGQGGGKEWLVSGSIDPPVQYEKVVKKEWITPWQIRRAAWIARRFAEFRTKLEREEIKPDEIKGVKFCMNQYANMFNLSRIPLPNCDAFSTPSPLSTHLSLLVDDYYYAIDIFSPPSSSADGVPEPLPAGEIEKRFQAAVDDAKRRKERGERAVEVGVLGADDRDNWTKNREHLLLLSPSNRSTLTSLSTSLLALSLDPYTLPSVPPPSGDPLRLPAVDAQVRNCATGIDGGRNRWFDKAVSVLVETNGRAGIMGEHSPVDALIPSIVVEYVLDKPVDGSQFMSSAPVPVATGKSGEGWEKLDWAVDEAILQEIEQVKQRNQKLIDDSDASQLWWGEYASEWIKKIAKQAPDAYIQQALQLAWFLDQGYPTATYETASTRTMLHGRTDVIRSLTSESRAFVKAMVNPESTAEERYRLLSSACQAHNALTKRSSSGHGYDRHLMGLKVQLRAGETHPLFEDEVYAKSQEWKLSTSGLSAGGKFTATGFGAAWPDGYGINYMAGPHLIKFGIESKFSCEKTSTQRFKHNIVQVLRDMRAVCEAVGGVDASRAKL
binding: binds

B2: Iron-sulfur clusters transporter ATM1, mitochondrial (protein, UniProt J9VWU3 56-732)
chain: QLPRHGLHRQSLAFFSTSHRRQTSPPPSPRTTSQSPTVPSKASTTPPTSLNTSKPIATESQDKTDWSIIVKLAGNIWPKNNPNVKFRVIGALTLLVAGKVLNVQVPFFFKTIVDSLNVPITESTTVWVLAGASIAGYGAARILTTLFGELRNAVFASVAQNAIRKVARETFEHLLNMDMKFHLERQTGGLTRAIDRGTKGISFILSSIVFHVIPTALEISMVCGILSWKFGWDFAAVTAITMLLYTWFTIKTTAWRTTFRKQANAADNKGATVAVDSLINYEAVKSFNNEKYEVAQYDTTLKAYEKASVKIATSLAALNSGQNFIFSSALTMMMLLGAQGIVKGTMTVGDLVLVNQLVFQLSLPLNFLGTVYRELRQSLIDMDVMFNLQSLNSAIKDTPTAKPLHLKGGEIEFRNVAFAYHPERPIFRDLSFKIPAGQKVAIVGPSGCGKSTVFRLLFRFYDSNSGQILIDGQDIKTVTLDSLRRSIGVVPQDTPLFHADILHNIRYGNLEATDEQVYEAARKAHVEGTIQRLPEKYATKVGERGLMISGGEKQRLAVARVLLKDPPVLFFDEATSALDVYTETELMRNINSILTGQGKTSVFIAHRLRTISDADLIIVLQDGYVAEQGTHEQLLAMPGGVYHRLWQAQLTESTQPTDEEIERQREELEVVDEKKKQ
binding: binds

B5: Glutaredoxin (protein, UniProt J9VKY5 1-146)
chain: MSFTALRRLTTLSTHITRTPISTRYFATTQTAKIGSSISTPNMTADVKSLVDKAIADNKVVVFSKTYCPYCKRAKSYLAEDTKDIEILELDERDDGAAIQAYLKELNGQGTVPHVYINKEFIGGSSDLLKLSHEQVKQKISAASSA
binding: binds

B8: ELYS domain-containing protein (protein, UniProt J9VJ17 1-767)
chain: MAIADQFAIPITILRHFDLSSSPWSSQAEIFTKRRERSSNGKLFFDRLLEIAGIDGPSLYPPKSPADVRRLLHSIQSTELDRLKKDCYFYYLLLDYDGQSEAQKPNGHVEGMDVDDEDAILAVKTVEATKVAGKFARRRCMPRNWKIFIDGYWALDHGLWEIAVDKLSDPSISEVNFVSEIVQSLSTSVSPPQLACSLLHSFFLSTQPNFPNPSFESDVRLIATASATSIFTALGCIRQESSPEQRKRMREVVWSWMLGAPRTPCGAGNHVVQSKALKELTHAPLFPEEETHLIEFLSHPPRSIPSPALSQLHDLMTLRLIHQGHYNQVFQLDKKLAGNGAGTQGDKQKRREMVREFISILPETHRRVLLADVEGNLRRGEEEINGFSEDVDMAGSWLQVDGVEEPTPAPAFTLVSGSLSMTVPASVPAPVAIASTPIRSLPSSSNVVRPAHVASVGSPSQRPERTHSPFGGPPRFAQGATVSSSSPRQSLAFTGSPFSLPQKTAAAKTHGSSEKPRPKMVINDDQEAEETLQKEPVRGKGKGVVDGKGGLRRSTRRISMSVEPEELPVDENHPIEPIAEDTAWSPSHAVVQEPKSTRKGGRKTRDKTPPMPVSPSRRSTRARKSALDPLATDDEPLARRTRGASVHPEPSATPATRGRMTRSVSRALLEDSDHETVDVDMSVPPSKRNGTAVPGSISKKRRGSVATSEITDDGLATVVETPRVRRSNRKAAPSPTPSVQGSEAGKIRRKKENAAPTPRMATRSRRV
binding: binds

B10: CAP-Gly domain-containing protein (protein, UniProt J9W340 1-1057)
chain: MSRLPQLSTPGRPSPTTGIPTPTARRPRSSLGPGQSGTAVSDDLMDRAFQEALRNRPPSSLRSNDSPNELSESTTSTSHLAAPSATYGLAAPRTPGVRPRTPSTLGLGAPVTPSATSRSVSRAGLGVRSSLSTSTTAPFTPRRTSLASSTMSSTPFARRPESRASEREPTSAKWVPTVGERVRISSMGYEGVLRFYGTTEFKEGVWAGVELEGGFKGKGKNDGTVEGVQYFSCPPKCGIFVTAVKLSPPTTGTSRPASVASSHRSTASYSMSGRATPSISGRATPSISGRATPSRPPSATPGRVTRAVSTAHRTRPSISGADDEATPARTALGNSTNANAGIDSRITVGSRASRYIGMTAKQLDNARAGTTTPASKLAASTSTFNGQTPRVSRVSMGMGGTPARPRQSMGGLVTPRVRPRASGIGDMPPPPSPGNINRVLTARQMETLEEEIRELKRRNGELEEDLKRMPELRDEDVTEMETLRQEMERSKQELEFLKAQLQTSDTNATDAVKILEELQEEHTAEQAELEAKLREIGDLRKELKLANERAEEELAAGAEARKDEVQKMLERAQAAEAEVNSMQVLVDDLTDAGRQMISLNETKQFELEERIRELEDKNRSLDEKLQKAREEQEKALLPPSPSTRQREAATAAEIDNETLNAQVKHLQNKLNLLEEELEEARAQAETDAETWKGKMNRVKDGEKAAREEIVALKSEIKELKEQANGARGKIGELEGALKENQVALESARAEIEGLRTEAAEAASLRTTLQAANTNEKALSAAQEEIKELKTKLTTAINAEAKVVSDTKDRINDLEAKIASLEAEITTLKQTAESSIENNLPTSRPKLSNSSTSSENAEKKLIGLQHIVQELSTENADLKEQCESLKEEVSLMKEEVKLLEEASADIPGAQGNQKELLAAKATIKELNREVAELEALVESKIYREDELETRAAELEREIVLYKSSSKRSNGEPPHSAASTTFSHSSDGHSSSTANGGSQGTGEGTERCELCEGPHDLDACPVFAGNLSTEGTKKGGRWCADCESNEHDTSECPMAEDVF
binding: binds
